Test results as given in publication PMC9081086 (RSC Advances, 2018).
HELM strings list residues between dots; [ac] is acetyl, [am] amide, other brackets name non-standard units.

Experiment: general procedure: Fmoc solid-phase peptide synthesis; Rink Amide MBHA resin (0.33 mmol g^-1 loading); Oxyma/DIC; HATU/HOAT/DIPEA for S5/R8 residues
Details: whole synthesis, scale of the general procedure 350 mg resin, 0.33 mmol g^-1 loading capacity

PEPTIDE1{I.K.L.S.P.E.T.K.D.N.L.K.K.V.L.K.[S5].A.I.K.[S5].A.I.A.V.A.K.M.V.[am]}$PEPTIDE1,PEPTIDE1,17:R3-21:R3$$$V2.0
isolated yield: 18.47%
